# Percent effect of library compounds

The chains behind the UniProt entries cited, without tags or fusion partners. Residues count along the entry.
UniProt P9WPC5, whole entry: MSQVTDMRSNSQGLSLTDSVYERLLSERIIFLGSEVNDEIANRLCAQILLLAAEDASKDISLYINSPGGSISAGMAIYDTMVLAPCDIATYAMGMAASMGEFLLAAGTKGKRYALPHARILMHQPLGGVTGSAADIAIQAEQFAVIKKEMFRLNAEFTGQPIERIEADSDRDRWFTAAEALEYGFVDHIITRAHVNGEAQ
UniProt P9WPC3, whole entry partner: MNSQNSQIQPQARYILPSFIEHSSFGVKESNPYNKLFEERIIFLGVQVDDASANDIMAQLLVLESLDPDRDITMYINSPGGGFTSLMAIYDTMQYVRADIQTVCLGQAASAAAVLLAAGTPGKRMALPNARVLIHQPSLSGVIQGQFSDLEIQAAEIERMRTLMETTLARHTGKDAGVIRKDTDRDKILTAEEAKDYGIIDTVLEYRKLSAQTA
UniProt P9WFT3, whole entry: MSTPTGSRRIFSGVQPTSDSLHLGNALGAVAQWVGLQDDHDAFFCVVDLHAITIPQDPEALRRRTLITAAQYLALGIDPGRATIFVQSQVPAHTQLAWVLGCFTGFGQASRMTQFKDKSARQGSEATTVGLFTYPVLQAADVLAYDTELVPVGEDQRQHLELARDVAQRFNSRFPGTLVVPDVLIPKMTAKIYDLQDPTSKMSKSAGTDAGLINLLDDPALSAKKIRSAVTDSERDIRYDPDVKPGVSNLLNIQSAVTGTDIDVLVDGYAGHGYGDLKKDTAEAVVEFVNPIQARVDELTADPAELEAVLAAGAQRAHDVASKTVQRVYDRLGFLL
UniProt I6X8D2, whole entry: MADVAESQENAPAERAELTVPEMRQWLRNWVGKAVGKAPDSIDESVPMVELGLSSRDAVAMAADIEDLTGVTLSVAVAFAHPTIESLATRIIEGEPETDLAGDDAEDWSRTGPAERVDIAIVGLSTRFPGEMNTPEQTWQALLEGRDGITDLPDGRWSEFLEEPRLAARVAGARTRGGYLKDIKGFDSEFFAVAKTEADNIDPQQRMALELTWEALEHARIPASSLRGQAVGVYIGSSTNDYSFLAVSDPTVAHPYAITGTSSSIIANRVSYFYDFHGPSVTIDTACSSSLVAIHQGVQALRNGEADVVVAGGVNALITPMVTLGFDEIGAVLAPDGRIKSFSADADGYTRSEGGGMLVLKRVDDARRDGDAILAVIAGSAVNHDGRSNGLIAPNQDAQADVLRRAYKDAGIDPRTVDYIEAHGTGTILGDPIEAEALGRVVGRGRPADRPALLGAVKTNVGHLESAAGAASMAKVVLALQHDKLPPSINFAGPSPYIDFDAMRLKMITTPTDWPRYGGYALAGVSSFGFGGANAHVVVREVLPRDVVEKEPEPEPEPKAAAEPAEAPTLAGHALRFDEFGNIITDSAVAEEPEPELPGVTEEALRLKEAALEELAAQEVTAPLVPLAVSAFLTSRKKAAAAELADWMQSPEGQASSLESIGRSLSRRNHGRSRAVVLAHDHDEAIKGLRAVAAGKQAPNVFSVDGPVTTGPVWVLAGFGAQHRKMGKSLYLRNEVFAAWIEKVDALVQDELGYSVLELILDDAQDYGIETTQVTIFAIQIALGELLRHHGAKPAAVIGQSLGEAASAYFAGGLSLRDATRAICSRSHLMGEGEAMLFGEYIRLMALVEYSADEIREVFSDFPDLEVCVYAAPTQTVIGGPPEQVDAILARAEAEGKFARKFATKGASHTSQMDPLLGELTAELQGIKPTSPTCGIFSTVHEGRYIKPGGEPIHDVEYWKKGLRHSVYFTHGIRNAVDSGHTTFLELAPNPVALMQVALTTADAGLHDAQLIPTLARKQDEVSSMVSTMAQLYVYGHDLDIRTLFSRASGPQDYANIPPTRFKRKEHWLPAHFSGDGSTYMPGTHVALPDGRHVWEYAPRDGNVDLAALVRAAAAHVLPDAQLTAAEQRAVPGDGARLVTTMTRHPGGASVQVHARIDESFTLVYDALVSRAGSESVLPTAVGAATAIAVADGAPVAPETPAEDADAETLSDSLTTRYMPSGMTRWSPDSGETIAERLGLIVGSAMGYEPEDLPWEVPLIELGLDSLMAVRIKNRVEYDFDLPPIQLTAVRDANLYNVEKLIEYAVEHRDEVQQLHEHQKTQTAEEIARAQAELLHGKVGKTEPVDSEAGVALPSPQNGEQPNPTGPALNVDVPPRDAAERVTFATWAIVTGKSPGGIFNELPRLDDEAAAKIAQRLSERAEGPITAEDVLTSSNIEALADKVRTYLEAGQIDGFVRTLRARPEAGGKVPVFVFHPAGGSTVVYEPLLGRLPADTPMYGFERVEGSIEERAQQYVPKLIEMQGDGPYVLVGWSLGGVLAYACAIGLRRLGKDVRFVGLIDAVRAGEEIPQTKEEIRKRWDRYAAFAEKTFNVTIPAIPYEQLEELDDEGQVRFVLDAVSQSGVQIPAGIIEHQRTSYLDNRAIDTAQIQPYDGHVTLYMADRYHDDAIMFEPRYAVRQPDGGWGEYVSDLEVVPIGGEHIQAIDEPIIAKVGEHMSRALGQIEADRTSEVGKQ
UniProt Q8IDJ8, 1-583: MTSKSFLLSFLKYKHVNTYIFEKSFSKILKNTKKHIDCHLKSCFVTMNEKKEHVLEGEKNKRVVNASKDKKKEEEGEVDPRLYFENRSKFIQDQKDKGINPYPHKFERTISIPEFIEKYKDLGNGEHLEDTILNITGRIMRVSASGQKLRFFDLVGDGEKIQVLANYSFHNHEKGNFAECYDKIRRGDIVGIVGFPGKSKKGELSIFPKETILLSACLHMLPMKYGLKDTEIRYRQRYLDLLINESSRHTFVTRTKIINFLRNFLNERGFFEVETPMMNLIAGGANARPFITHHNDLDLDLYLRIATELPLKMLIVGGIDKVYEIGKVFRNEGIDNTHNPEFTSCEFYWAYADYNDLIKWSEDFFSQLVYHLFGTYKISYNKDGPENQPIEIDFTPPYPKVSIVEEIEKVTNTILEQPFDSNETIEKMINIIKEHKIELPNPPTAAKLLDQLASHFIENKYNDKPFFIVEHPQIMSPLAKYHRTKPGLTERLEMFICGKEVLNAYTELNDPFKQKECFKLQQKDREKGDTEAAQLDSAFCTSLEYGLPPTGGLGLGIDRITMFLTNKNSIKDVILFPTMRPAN

Data taken from ChEMBL document CHEMBL3988442, “University of Dundee, Small-Polar-MMV Screening Library” (2021).

ClpP1P2: 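ClpP1P2, Mycobacterium tuberculosis (UniProt P9WPC5 and UniProt P9WPC3). Protease assay of ClpP1P2, read by the AMC dye that it sets free. Tested at 50 µM. Higher reads as stronger inhibition, judged from the few compounds that gave an IC50. Most other retested compounds had strongly negative values. Of about 69,000 compounds tested this way, about 10 (0.015%) reached 50% or more in at least one test.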
MtTrpRS: 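Enzyme assay of tryptophanyl-tRNA synthetase; the read-out is not stated. Target: Tryptophan-tRNA ligase, Mycobacterium tuberculosis (UniProt P9WFT3). Compounds at 10 µM. Direction is not recorded; retested compounds ran higher, which suggests that high means inhibition. Size under these conditions: about 65,000 compounds, about 64 of them at 50% or above in at least one test.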
Pks13 thioesterase: 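Polyketide synthase Pks13, Mycobacterium tuberculosis (UniProt I6X8D2). Enzyme assay of the thioesterase domain of polyketide synthase 13; the read-out is not stated. Tested at 30 µM. Higher reads as stronger inhibition (inferred from which compounds were picked for retests). Of about 67,000 compounds tested this way, about 300 (0.46%) reached 50% or more in at least one test.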
PfKRS1: 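Enzyme assay of the cytosolic lysyl-tRNA synthetase in 384-well plates, read by luminescence. Target: Lysine-tRNA ligase, Plasmodium falciparum 3D7 (UniProt Q8IDJ8). Concentration: 30 µM. Direction is inferred from only a few compounds that gave an IC50; most scored high, so higher reads as stronger inhibition. Size under these conditions: about 69,000 compounds, about 49 of them at 50% or above in at least one test.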

Results are given as percent effect. How 0% and 100% were set is not recorded. Most values in the screen are low, and negative values occur. This is an unselected part of the compounds tested. A dash means the value is not listed here; it may have been measured.

| # | structure | ClpP1P2 | MtTrpRS | Pks13 thioesterase | PfKRS1 |
|---|---|---|---|---|---|
| 1 | `COc1c(C)cnc(CSc2nnc(C)s2)c1C` | -11.1% | -1.421% | -39.21% | -1.379% |
| 2 | `Cc1noc(C)c1CN(C)C(=O)C1(N)CCCCC1` | -10.57% | 0.8215% | -0.5371% | -2.181% |
| 3 | `CCc1cnc(N2CCC3(CC2)CN(c2cccnc2)C(=O)CO3)nc1` | -2.177% | 2.354% | -17.39% | -3.807% |
| 4 | `CCOc1ccnc(N2CCN(C(=O)c3ccn(C)c(=O)c3)CC2)n1` | -7.063% | -0.342% | 1.555% | 1.655% |
| 5 | `COc1cc2c(cc1CCC(=O)O)CCC2` | 34.69% | 2.903% | -22.41% | -3.5% |
| 6 | `CCOc1ccc(S(=O)(=O)NCCc2ccc(N(C)C)cc2)cc1F` | 6.953% | -4.483% | -0.5084% | 9.405% |
| 7 | `CC1=Nc2c(c(=O)[nH]n2C(C)C)C(c2ccccc2)S1` (stereo not shown) | 1.095% | -4.221% | -31.04% | 1.644% |
| 8 | `Cc1nc(-c2ccncc2)ncc1C(C)NC(=O)C1=NN(C)C(=O)CC1` (stereo not shown) | -10.52% | 3.382% | 0.8247% | 1.961% |
| 9 | `CC(=O)N1CCN(C(=O)c2ccc3ccn(C)c3c2)CC1` | -6.402% | -5.252% | -24.3% | -2.134% |
| 10 | `Cc1cc(C(=O)OCC2CCCN2C(N)=O)c(C)o1` (stereo not shown) | -11.41% | 1.763% | 6.525% | 1.513% |
| 11 | `c1c(-c2nc(CN3CCOCC3)no2)nnn1CC1CCCCC1` | -3.787% | -0.1006% | -3.697% | 4.832% |
| 12 | `COc1ccc(Nc2ccc(C#N)cn2)cc1N1CCCC1=O` | -4.297% | 7.873% | 22.03% | 0.8713% |
| 13 | `CN(C)c1ncc(-c2ccc(F)cc2)c(C2CNCCO2)n1` (stereo not shown) | -32.64% | -4.148% | 6.169% | 0.1959% |
| 14 | `COc1ccc(OCCN2CCC(c3ccnn3CCO)CC2)cc1` | -13.46% | -5.716% | -10.53% | -0.06615% |
| 15 | `CCOc1ncccc1NC(=O)NC1CCN(C(=O)C2CC2)CC1` | -12.64% | 1.76% | -20.92% | 0.8843% |
| 16 | `Cc1ccc(-c2cn3c(n2)CO[C@@H](CNCc2nccn2C)C3)cc1` | -7.839% | 0.9863% | -57.97% | 4.666% |
| 17 | `CNc1cc(C2CCCNC2)nc(C)n1` (stereo not shown) | 9.162% | 13.32% | -6.192% | 7.118% |
| 18 | `CCSCc1nc(O)c2nnn(C3CCN(Cc4ccoc4)CC3)c2n1` | -17.07% | -3.385% | 5.19% | -0.2847% |
| 19 | `Cc1ccc(CN(CCN(C)C)C(=O)Nc2cc(C(N)=O)ccc2C)s1` | -2.897% | 0.722% | -26.44% | -5.194% |
| 20 | `O=S(=O)(NCCC(O)c1cccs1)c1ccccc1` (stereo not shown) | 2.529% | -4.787% | -33.06% | -0.3961% |
| 21 | `CN1C(=O)CC(c2ccccc2)C12CCN(CC1CCOCC1)CC2` (stereo not shown) | 1.271% | -2.907% | -12.66% | -1.84% |
| 22 | `c1csc(CN2CCc3ncnc(C4CCOC4)c3CC2)n1` (stereo not shown) | -2.029% | -4.368% | -40.18% | 8.333% |
| 23 | `c1cnn(CC2CCCN2Cc2cn3ccsc3n2)c1` (stereo not shown) | -23.95% | 11.1% | -27% | -0.8099% |
| 24 | `CCC(Nc1nc(C(C)C)nc2c1cnn2C)c1ccc(O)cc1` (stereo not shown) | 13.39% | 2.142% | -25.02% | -2.97% |
| 25 | `CCn1ncc2c(C(F)(F)F)cc(-c3cnn(C)c3)nc21` | 4.757% | 4.145% | 3.654% | 0.8203% |
| 26 | `O=C(c1ccc[nH]1)N1CCO[C@H]2CC(COCc3ccccn3)C[C@@H]21` (stereo partly shown) | -3.167% | -2.697% | -30.64% | 11.34% |
| 27 | `COC1CCN(S(=O)(=O)N2CCCC2c2ccco2)CC1` (stereo not shown) | -0.5471% | -0.8215% | 1.07% | -0.8408% |
| 28 | `NS(=O)(=O)CCNC(=O)c1nnn(-c2ccccc2)c1C1CC1` | -6.709% | 1.876% | -5.841% | 14.17% |
| 29 | `CSCCC(=O)NS(=O)(=O)c1ccc2c(c1)OCCO2` | -9.693% | -1.154% | -0.2772% | -4.031% |
| 30 | `Cc1nc(CN(Cc2ccncc2)C2CCN(C)CC2)cs1` | 25.91% | -3.083% | -29.73% | 6.371% |
| 31 | `c1cc(CN2CCc3ncnc(C4CCOC4)c3CC2)ccn1` (stereo not shown) | -2.242% | -0.8364% | -34.23% | 5.876% |
| 32 | `CC(NCc1ccc(C(N)=O)cc1)c1ccc(Cl)c(Cl)c1` (stereo not shown) | 4.083% | 2.033% | -8.004% | 4.277% |
| 33 | `c1cc2c(cc1-c1noc3c1CN(C1CCSC1)CC3)OCO2` (stereo not shown) | -13.92% | -0.2564% | -2.311% | 0.1789% |
| 34 | `COc1cccc(OCC2CCCN(c3cc(C(N)=O)ccn3)C2)c1` (stereo not shown) | -9.667% | 3.994% | -14.8% | 5.282% |
| 35 | `CCn1ccnc1CN1CCNCC1C` (stereo not shown) | -1.16% | 0.9709% | -4.42% | 2.328% |
| 36 | `CCn1cc(CN2CCCN(C(=O)CCc3nccs3)CC2)cn1` | 3.773% | -2.24% | -5.087% | 0.4244% |
| 37 | `COc1ccccc1N1CCN(C(=O)CSC(C)C)C(C)C1` (stereo not shown) | -22.81% | 0.2894% | 3.623% | 1.79% |
| 38 | `CCOC(=O)[C@]12CCCN(Cc3cccs3)C[C@H]1CN(C(C)=O)C2` | -5.462% | - | 0.5052% | 3.742% |

Repeated from the top, 4 entries:

structure,ClpP1P2,MtTrpRS,Pks13 thioesterase,PfKRS1
COc1c(C)cnc(CSc2nnc(C)s2)c1C,-11.1%,-1.421%,-39.21%,-1.379%
Cc1noc(C)c1CN(C)C(=O)C1(N)CCCCC1,-10.57%,0.8215%,-0.5371%,-2.181%
CCc1cnc(N2CCC3(CC2)CN(c2cccnc2)C(=O)CO3)nc1,-2.177%,2.354%,-17.39%,-3.807%
CCOc1ccnc(N2CCN(C(=O)c3ccn(C)c(=O)c3)CC2)n1,-7.063%,-0.342%,1.555%,1.655%